According to publication PMC7364817:
These are yes or no findings as the source states them, for the method shown. In cells and extracts the contact can be indirect. Here binding means that the protein was enriched with, or labelled near, the bait; the list need not be complete. Tags and fused reporters may be left off the sequences shown.

By UniProt entry, the sequences of proteins in these tests, tags left out.
UniProt Q96N67: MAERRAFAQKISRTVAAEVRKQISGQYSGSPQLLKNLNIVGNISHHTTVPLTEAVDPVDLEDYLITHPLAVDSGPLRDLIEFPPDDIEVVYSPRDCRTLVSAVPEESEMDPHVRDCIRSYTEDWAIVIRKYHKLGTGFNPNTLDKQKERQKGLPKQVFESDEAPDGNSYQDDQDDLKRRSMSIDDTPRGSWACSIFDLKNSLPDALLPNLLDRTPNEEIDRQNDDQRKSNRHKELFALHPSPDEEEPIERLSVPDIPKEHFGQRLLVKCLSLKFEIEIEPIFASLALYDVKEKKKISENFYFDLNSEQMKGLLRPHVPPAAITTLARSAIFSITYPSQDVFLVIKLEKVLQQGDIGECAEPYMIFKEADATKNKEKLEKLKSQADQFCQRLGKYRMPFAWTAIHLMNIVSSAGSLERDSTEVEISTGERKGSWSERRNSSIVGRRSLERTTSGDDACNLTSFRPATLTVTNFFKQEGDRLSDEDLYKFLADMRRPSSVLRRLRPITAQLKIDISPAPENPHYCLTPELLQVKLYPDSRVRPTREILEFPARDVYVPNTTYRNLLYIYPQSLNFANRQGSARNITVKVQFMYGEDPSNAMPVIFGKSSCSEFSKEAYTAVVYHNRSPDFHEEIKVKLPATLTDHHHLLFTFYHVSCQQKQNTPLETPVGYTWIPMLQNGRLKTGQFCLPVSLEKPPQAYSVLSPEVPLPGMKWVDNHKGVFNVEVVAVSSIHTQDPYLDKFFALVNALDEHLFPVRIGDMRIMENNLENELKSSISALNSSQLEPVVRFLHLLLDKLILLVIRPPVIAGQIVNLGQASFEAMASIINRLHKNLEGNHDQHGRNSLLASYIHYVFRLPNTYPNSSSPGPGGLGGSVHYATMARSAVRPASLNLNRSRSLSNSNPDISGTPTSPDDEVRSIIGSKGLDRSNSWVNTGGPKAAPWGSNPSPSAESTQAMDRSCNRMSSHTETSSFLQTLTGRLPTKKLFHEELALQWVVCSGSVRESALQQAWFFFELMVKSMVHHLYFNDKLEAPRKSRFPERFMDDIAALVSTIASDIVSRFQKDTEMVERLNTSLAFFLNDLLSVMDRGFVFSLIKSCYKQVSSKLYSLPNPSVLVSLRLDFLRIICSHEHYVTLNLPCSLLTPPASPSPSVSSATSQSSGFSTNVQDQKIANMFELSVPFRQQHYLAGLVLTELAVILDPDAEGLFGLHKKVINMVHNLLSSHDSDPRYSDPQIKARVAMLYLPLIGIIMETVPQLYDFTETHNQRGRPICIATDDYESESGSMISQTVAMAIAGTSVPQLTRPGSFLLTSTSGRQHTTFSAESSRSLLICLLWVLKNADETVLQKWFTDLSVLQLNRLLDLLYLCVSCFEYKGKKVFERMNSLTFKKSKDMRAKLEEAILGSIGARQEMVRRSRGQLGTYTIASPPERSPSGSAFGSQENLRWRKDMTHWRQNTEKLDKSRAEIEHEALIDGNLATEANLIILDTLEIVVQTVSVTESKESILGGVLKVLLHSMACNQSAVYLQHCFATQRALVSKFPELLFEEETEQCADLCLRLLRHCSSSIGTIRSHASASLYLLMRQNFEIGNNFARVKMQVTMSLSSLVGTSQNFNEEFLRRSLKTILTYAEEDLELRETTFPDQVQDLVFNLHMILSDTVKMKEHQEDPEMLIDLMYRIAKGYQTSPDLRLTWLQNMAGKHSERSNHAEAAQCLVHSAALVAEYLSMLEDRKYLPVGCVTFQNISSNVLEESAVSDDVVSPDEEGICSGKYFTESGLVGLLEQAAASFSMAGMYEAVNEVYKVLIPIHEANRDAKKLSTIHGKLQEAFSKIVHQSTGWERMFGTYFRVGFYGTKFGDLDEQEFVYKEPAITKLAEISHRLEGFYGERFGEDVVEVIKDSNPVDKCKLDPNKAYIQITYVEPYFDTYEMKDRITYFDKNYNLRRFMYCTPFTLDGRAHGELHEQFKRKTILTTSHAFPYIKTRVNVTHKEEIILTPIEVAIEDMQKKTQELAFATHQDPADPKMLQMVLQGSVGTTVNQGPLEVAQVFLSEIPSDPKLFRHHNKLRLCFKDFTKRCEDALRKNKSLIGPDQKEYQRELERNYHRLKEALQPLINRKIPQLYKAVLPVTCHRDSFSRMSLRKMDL
UniProt Q14318: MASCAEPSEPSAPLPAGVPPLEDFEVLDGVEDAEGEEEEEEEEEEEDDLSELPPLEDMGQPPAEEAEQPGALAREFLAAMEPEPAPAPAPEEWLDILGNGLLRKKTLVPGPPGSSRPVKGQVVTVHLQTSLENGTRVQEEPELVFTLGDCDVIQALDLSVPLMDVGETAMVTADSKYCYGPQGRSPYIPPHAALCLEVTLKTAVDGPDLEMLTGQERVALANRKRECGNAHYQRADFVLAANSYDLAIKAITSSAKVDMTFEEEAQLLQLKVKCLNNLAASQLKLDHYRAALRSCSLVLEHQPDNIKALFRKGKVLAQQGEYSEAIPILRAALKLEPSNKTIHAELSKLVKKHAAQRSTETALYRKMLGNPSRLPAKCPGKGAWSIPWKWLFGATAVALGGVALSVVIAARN
UniProt P35637: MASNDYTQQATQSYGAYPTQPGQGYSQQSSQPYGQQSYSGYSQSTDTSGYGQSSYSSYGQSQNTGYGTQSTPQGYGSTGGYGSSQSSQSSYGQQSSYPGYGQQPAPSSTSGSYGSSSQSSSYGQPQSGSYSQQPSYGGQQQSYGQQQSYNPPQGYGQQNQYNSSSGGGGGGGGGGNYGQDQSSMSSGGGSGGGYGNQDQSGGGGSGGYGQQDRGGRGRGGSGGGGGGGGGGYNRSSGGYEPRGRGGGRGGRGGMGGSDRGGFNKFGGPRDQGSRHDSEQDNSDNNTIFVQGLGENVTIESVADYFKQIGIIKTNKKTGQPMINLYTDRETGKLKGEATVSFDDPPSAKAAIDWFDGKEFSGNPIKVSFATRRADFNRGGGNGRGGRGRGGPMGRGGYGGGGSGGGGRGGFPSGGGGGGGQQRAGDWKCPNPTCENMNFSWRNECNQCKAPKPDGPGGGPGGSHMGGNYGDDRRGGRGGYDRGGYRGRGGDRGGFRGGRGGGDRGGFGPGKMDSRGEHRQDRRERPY
UniProt Q8WXI9: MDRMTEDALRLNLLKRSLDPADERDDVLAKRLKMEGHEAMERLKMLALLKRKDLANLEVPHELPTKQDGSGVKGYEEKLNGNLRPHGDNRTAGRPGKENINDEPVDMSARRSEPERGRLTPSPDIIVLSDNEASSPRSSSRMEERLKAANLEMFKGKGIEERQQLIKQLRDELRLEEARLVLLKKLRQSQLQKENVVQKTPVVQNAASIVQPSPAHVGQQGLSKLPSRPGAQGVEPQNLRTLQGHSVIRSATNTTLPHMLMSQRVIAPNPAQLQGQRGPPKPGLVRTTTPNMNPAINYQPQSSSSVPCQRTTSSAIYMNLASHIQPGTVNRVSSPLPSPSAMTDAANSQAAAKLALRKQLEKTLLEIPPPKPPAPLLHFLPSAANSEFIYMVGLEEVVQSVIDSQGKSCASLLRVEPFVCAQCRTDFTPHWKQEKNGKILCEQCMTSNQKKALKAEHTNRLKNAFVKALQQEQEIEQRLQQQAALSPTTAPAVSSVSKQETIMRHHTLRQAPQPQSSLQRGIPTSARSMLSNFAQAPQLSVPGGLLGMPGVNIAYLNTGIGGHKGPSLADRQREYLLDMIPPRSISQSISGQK
UniProt Q9UNE7: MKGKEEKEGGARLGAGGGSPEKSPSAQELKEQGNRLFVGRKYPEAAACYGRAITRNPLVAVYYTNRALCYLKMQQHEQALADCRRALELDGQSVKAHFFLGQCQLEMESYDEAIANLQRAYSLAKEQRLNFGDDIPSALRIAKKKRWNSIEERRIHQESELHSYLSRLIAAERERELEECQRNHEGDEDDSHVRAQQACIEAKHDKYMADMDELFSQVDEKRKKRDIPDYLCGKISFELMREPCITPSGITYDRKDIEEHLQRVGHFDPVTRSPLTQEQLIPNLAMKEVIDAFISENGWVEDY
UniProt P60468: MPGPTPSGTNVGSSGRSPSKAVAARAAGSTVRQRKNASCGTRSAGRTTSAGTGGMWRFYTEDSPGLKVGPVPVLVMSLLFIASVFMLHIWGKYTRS
UniProt Q9H4A3: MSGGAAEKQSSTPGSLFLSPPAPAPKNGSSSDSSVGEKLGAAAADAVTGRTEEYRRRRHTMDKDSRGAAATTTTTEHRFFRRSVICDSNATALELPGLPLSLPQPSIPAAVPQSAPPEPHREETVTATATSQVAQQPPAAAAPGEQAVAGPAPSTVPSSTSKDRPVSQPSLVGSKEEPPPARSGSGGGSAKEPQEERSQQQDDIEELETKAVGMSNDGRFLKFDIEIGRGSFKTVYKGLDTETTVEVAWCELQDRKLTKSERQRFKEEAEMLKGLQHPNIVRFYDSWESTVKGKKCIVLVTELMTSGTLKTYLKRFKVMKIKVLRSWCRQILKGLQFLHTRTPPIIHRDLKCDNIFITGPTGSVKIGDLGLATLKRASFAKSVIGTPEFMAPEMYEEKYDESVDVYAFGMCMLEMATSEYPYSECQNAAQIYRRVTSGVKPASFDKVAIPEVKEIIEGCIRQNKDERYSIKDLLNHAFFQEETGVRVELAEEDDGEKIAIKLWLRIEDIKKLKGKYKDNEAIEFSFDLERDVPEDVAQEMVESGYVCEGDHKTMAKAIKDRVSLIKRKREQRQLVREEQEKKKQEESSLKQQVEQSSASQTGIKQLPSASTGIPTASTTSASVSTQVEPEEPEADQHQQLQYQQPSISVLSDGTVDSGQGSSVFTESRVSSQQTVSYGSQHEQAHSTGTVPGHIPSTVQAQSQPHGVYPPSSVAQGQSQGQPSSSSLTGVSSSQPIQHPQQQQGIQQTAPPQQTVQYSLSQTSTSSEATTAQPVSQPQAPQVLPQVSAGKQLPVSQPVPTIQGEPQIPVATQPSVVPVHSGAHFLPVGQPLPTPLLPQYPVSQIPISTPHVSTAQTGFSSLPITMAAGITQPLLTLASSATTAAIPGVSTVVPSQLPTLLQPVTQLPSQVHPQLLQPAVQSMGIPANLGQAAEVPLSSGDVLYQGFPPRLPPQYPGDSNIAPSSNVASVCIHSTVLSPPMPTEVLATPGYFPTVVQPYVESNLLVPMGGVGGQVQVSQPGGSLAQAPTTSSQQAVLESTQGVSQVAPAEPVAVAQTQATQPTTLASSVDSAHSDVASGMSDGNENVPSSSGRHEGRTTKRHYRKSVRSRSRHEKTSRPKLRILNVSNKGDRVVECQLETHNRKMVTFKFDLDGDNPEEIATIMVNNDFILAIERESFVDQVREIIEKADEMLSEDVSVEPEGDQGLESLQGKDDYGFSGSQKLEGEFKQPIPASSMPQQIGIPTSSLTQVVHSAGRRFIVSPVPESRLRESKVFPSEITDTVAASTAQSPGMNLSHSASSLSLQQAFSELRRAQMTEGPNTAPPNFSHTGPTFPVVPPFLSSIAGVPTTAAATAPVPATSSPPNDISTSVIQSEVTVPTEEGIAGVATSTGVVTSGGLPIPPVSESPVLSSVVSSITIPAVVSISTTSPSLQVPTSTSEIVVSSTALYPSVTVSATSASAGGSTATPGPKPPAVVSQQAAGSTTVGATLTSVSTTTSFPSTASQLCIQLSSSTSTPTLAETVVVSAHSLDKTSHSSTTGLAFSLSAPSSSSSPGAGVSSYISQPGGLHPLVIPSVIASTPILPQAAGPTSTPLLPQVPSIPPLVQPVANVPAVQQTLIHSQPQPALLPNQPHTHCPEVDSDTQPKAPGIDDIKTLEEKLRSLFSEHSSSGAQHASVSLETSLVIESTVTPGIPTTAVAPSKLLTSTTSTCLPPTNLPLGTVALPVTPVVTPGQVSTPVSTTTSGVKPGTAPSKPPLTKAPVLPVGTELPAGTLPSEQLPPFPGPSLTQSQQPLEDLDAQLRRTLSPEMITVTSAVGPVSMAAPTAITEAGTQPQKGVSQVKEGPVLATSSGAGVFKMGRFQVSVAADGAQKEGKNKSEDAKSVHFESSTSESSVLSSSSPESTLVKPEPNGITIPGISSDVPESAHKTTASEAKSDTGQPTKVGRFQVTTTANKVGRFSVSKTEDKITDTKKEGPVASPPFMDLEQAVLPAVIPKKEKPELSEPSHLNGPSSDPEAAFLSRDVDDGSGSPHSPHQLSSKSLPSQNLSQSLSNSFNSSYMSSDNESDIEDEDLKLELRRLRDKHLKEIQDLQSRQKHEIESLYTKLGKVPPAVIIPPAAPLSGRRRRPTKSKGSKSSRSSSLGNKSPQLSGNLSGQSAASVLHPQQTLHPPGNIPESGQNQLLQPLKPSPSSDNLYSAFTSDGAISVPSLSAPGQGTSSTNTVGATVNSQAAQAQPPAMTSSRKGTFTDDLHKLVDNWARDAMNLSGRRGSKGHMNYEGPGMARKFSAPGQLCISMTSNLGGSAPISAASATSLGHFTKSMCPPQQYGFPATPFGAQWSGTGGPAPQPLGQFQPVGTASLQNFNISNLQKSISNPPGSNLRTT

biological target: T1, FLAG-tagged SMCR8 (Smith-Magenis Syndrome Chromosome Region, Candidate 8) (UniProt Q8TEV9); test: affinity purification with mass spectrometry; FL-SMCR8, C9orf72-FL or empty vector transfected in HEK 293T; α-FLAG agarose IP from whole cell lysates with or without RNase; LC-MS/MS; hits with three or more spectra and not detected in vector only control
T1 sequence: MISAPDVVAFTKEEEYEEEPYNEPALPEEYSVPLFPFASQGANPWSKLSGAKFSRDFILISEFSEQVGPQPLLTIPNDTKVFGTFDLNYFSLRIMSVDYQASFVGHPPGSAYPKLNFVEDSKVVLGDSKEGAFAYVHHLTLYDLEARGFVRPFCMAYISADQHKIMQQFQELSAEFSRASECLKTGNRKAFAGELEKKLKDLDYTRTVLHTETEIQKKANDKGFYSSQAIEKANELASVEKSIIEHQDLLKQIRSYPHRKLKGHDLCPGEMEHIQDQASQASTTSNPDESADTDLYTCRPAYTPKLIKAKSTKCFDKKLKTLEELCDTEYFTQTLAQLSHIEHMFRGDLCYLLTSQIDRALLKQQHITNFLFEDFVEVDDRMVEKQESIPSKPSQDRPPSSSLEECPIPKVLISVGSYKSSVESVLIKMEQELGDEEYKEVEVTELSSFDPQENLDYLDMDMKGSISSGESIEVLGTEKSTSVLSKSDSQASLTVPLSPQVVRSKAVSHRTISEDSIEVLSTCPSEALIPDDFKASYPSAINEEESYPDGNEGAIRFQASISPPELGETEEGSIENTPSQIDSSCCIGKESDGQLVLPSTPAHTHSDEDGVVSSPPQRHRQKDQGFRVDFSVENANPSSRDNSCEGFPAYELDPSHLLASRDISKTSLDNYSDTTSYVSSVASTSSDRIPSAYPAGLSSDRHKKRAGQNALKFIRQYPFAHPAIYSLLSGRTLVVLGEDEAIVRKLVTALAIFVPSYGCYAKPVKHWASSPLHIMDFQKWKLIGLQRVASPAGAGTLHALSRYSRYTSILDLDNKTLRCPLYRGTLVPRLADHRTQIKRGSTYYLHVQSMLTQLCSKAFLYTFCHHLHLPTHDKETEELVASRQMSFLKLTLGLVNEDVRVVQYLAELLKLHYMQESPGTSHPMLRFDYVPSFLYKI

| binding | Substance |
| --- | --- |
| binds | ALDH3A2 (from UniProt P51648 1-485) |
| binds | ATXN2 (from UniProt Q99700 1-1313) |
| binds | BCL2 associated athanogene 2 (from UniProt O95816 1-211) |
| binds | BCL2 associated athanogene 3 (from UniProt O95817 1-575) |
| binds | BCL2 associated athanogene 6 (from UniProt P46379 1-1132) |
| binds | CLTC (from UniProt Q00610 1-1675) |
| binds | DCTN1 (from UniProt Q14203 1-1278) |
| binds | DNA polymerase delta 1, catalytic subunit (from UniProt P28340 1-1107) |
| binds | DOCK7 (from UniProt Q96N67 1-2140) |
| binds | DnaJ heat shock protein family (Hsp40) member A2 (from UniProt O60884 1-412) |
| binds | DnaJ heat shock protein family (Hsp40) member B1 (from UniProt P25685 1-340) |
| binds | DnaJ heat shock protein family (Hsp40) member B11 (from UniProt Q9UBS4 23-358) |
| binds | DnaJ heat shock protein family member A1 (from UniProt P31689 1-397) |
| binds | DnaJ heat shock protein family member B6 (from UniProt O75190 1-326) |
| binds | FK506 binding protein 8 (from UniProt Q14318 1-412) |
| binds | FMR1 autosomal homolog 2 (from UniProt P51116 1-673) |
| binds | FUS (from UniProt P35637 1-526) |
| binds | GATAD2B (from UniProt Q8WXI9 1-593) |

| binding | Substance |
| --- | --- |
| binds | GCN1, eIF2 alpha kinase activator homolog (from UniProt Q92616 1-2671) |
| binds | HECT, UBA and WWE domain containing 1, E3 ubiquitin protein ligase (from UniProt Q7Z6Z7 1-4374) |
| binds | LMNA (from UniProt P02545 1-646) |
| binds | MTHFD1 (from UniProt P11586 1-935) |
| binds | NOP56 (from UniProt O00567 1-594) |
| binds | PUM1 (from UniProt Q14671 1-1186) |
| binds | Parkinsonism associated deglycase (from UniProt Q99497 1-189) |
| binds | RAD21 cohesin complex component (from UniProt O60216 1-631) |
| binds | RAN binding protein 2, E3 SUMO ligase (from UniProt P49792 1-3224) |
| binds | SAMHD1 (from UniProt Q9Y3Z3 1-626) |
| binds | SLC25A1 (from UniProt P53007 14-311) |
| binds | STIP1 homology and U-box containing protein 1 (from UniProt Q9UNE7 1-303) |
| binds | Sec61 translocon beta subunit (from UniProt P60468 1-96) |
| binds | TAR DNA binding protein 43, endogenous (from UniProt Q13148 1-414) |
| binds | WNK1 (from UniProt Q9H4A3 1-2382) |
| binds | apoptosis inducing factor, mitochondria associated 1 (from UniProt O95831) |
| binds | autophagy cargo receptor p62 (encoded by the SQSTM1 gene), endogenous (from UniProt Q13501 1-440) |

| Substance | binding |
| --- | --- |
| HCFC1 (human (endogenous in HEK 293T)) | binds |
| PDK3 (human (endogenous in HEK 293T)) | binds |
